In PubChem BioAssay AID1347426 (Functional Genomics Laboratory (NCATS/FGL), 2020):
Out of some 31,000 sequences screened, about 1,400 (4.5%) were called active.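 Rule for the calls: active = median seed-adjusted z-score above 1 or below -1; inactive = the rest.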 The list shows a part of the results.

Assay: Novel Modifiers of Survival Motor Neuron (SMN) Protein: Gene Identification via Genome-wide siRNA Screen;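 note: luminescence tracks full-length SMN protein made from the SMN2 reporter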
Conditions: HEK293T SMN2-luciferase reporter, siRNA knockdown, 72 h; actives lie on both sides
Method in brief: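 Steps: spot 1 pmol siRNA, add Lipofectamine RNAiMax in serum-free DMEM, seed HEK293T SMN2–luciferase reporter cells; incubate 72 h at 37 °C; add ONE-Glo; normalize luminescence to control siRNA, log10, MAD. Candidates: |MAD| > 1.0.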
In the case of GCAUAUCUUCUAACUUGCATT against EVI1, the median seed-adjusted z-score is reported as inactive: 0. For GGAGUUACGAUAGCCGGAATT against DIAPH1, the median seed-adjusted z-score was inactive: 0.145. In the case of AGAUAGUGCGGGUGACUCATT against ACSS1, the median seed-adjusted z-score is reported as inactive: 0.243. With CUUGCAGCAUAUUACCUAUTT against MAN1A2 the median seed-adjusted z-score was inactive: 0.554. With GCUACUCACCUGAUAAAGATT against PLA2G7 the median seed-adjusted z-score was inactive: 0.292. In the case of GAGUUACCAGAACAUUUGATT against RFK, the median seed-adjusted z-score is reported as inactive: -0.00532. In the case of CAAACAAAGUUCGUUCCAATT against STX1A, the median seed-adjusted z-score is reported as inactive: 0. With CGCAGUCCGAGGACAUGUUTT against FOXD3 the median seed-adjusted z-score was inactive: 0.224. For CAGUAAGAAGGGUUCAAUATT against BTK, the median seed-adjusted z-score was inactive: -0.0648. With CUUCAGGAGUUAUUACGGATT against MTMR11 the median seed-adjusted z-score was inactive: -0.0244. With CCACGAAUCCUCCAUGAAATT against PRM3 the median seed-adjusted z-score was inactive: 0.249. In the case of CCCUAUAGCUUUACAUGCUTT against SDK1, the median seed-adjusted z-score is reported as inactive: 0.604. With CAAUACCAAUUGAUGGAAATT against ALDH1A1 the median seed-adjusted z-score was inactive: -0.355. For GAAUUGUUUUAGCUAACGATT against PGM2, the median seed-adjusted z-score was inactive: 0.355. For CGACCACAUUUACCGACAATT against NR5A2, the median seed-adjusted z-score was inactive: -0.275. For GGCAAAUAUCAGAUCAAAATT against AP2A2, the median seed-adjusted z-score was inactive: 0.158. In the case of GGUCUGUGCCUGUCAAUAATT against HBM, the median seed-adjusted z-score is reported as inactive: 0. With CGCUUCAAGAGGUUCGGAATT against MLPH the median seed-adjusted z-score was active: -1.2. For GGAUUGCCCGUAAUUUCUATT against NDUFB5, the median seed-adjusted z-score was inactive: -0.122. In the case of AGACCUACACGGUACGCGUTT against THAP11, the median seed-adjusted z-score is reported as active: -1.36. In the case of ACAAGAAGCUUGGAGAGAUTT against FN3KRP, the median seed-adjusted z-score is reported as inactive: 0.00247. In the case of GGUAAAAGCUGUCACAAUATT against TRDN, the median seed-adjusted z-score is reported as inactive: 0.195. For AGCAGAAGAUGGUAGAUGATT against VIL1, the median seed-adjusted z-score was inactive: 0.368. For CGGUCAUUGUAGCUAUAGATT against ABCC9, the median seed-adjusted z-score was inactive: 0.376. In the case of GCAUCCUCAUUUGCCCACATT against FGR, the median seed-adjusted z-score is reported as inactive: 0.596. With CAACGACAGAACUAACAGATT against SENP6 the median seed-adjusted z-score was active: -1.03. For CCAUCUCAGAUGUCCUAAATT against GCH1, the median seed-adjusted z-score was inactive: 0.569. With AGCCCUCGGUGAUUGAGAATT against MCAT the median seed-adjusted z-score was inactive: 0. For GUUCAGUGCUGCAAGGUCATT against AMZ1, the median seed-adjusted z-score was inactive: 0.205. For CCAACUACCGUGACAAUGUTT against PCDH12, the median seed-adjusted z-score was inactive: 0.0177. For AGAUCGUGGACUUCGCUAATT against NR1H2, the median seed-adjusted z-score was inactive: 0.069. For CAAUCAGAGUAGAAGUCGATT against DNAJA2, the median seed-adjusted z-score was inactive: 0. For GCAACUCUUUACAAACCUATT against PCDHGC3, the median seed-adjusted z-score was inactive: 0. For GGGUGGAGAUGCACGUUAATT against RDH5, the median seed-adjusted z-score was inactive: 0.305. With CUUUCCUCAUGUUUAUGAUTT against COX8C the median seed-adjusted z-score was inactive: -0.0513. With CAGUGACUGUUCCCAAUGATT against RACGAP1 the median seed-adjusted z-score was inactive: 0. For GAUUUUAGCACUACAACAATT against ZNF664, the median seed-adjusted z-score was active: 1.08. With CCGCCUCAUUUUUAACCCATT against HTR3D the median seed-adjusted z-score was inactive: 0.776. With UCAGUAUAUUUGUUUCGUATT against GTPBP3 the median seed-adjusted z-score was inactive: -0.197. For CUACAAGACUAAGAACGCATT against E4F1, the median seed-adjusted z-score was inactive: 0.698. For CCUUAGUAAAGAUAUAGGATT against ZNF527, the median seed-adjusted z-score was inactive: 0. With AGGUCAUUGCUGAGAAGUATT against FMNL1 the median seed-adjusted z-score was inactive: -0.3. For GGUAACCAGUUAAUGGAAATT against GJA9, the median seed-adjusted z-score was inactive: -0.00119. For CGGUAUUACCAACCUUAUATT against LDHAL6B, the median seed-adjusted z-score was inactive: -0.192. For GGUUUCAACUGGACUUCUATT against MFSD5, the median seed-adjusted z-score was inactive: 0.205. With GGUCACCACCAAAUACGUUTT against B4GALNT2 the median seed-adjusted z-score was inactive: -0.174. For GAGCACCAGCAGUACGUGATT against GPER, the median seed-adjusted z-score was inactive: 0.157. In the case of GGACUGAAUCGGAGAUGGATT against BCL2L1, the median seed-adjusted z-score is reported as inactive: 0.0801. In the case of GGCGAAUUGUGGUCCUCAATT against SMPDL3B, the median seed-adjusted z-score is reported as inactive: 0.0704. For CUAUUGUAAAAGUAUGGAATT against ARL6IP2, the median seed-adjusted z-score was inactive: 0.274. In the case of CCAGUAGCCUCUAUAAGCATT against OPN4, the median seed-adjusted z-score is reported as inactive: 0.167. For CCAAGAGCGAGAUCAUAGATT against KRT3, the median seed-adjusted z-score was inactive: 0.399. In the case of CAUUCACGGAGAUAAGAAATT against ALDH1L1, the median seed-adjusted z-score is reported as inactive: 0.0289. In the case of CCUGUAGACUGGAAUGACATT against DHX36, the median seed-adjusted z-score is reported as inactive: 0.165. For AGACCAACCCUGGUACUUUTT against SRMS, the median seed-adjusted z-score was active: -1.58. For GACACUGCAAUAAAAGGUATT against WIF1, the median seed-adjusted z-score was inactive: -0.521. With GUGCAUGACAUAGCAGAAATT against ADCK5 the median seed-adjusted z-score was inactive: 0.958. With GGGCUGUUAUUUCAAGAAATT against GALNT13 the median seed-adjusted z-score was inactive: -0.0149. In the case of GUAUUGCCUUUGUCAAGAATT against SNX19, the median seed-adjusted z-score is reported as inactive: 0.67. In the case of CACUCUUACCUAUACCUUATT against NPY2R, the median seed-adjusted z-score is reported as inactive: 0.121. With GGAAUUCGAUGGGAACUUUTT against CACHD1 the median seed-adjusted z-score was inactive: 0.119. In the case of GGACGACCACGGCUACAUUTT against CRYAA, the median seed-adjusted z-score is reported as active: -1.03. For GGCUUUUUGCUACAGAUGATT against OSGEP, the median seed-adjusted z-score was inactive: 0.0178. With GCCGCAGCCUGAUUAUUGATT against CCS the median seed-adjusted z-score was inactive: 0.0581. For GGAAUGAUCAUGGUCGUGATT against CYSLTR1, the median seed-adjusted z-score was inactive: 0.364. In the case of GCCGUGAUUACGUCCGUUATT against CCL22, the median seed-adjusted z-score is reported as inactive: 0. With AGGAGAUCGUCGACCUGGUTT against TUBA3C the median seed-adjusted z-score was inactive: -0.0806. In the case of CGGCCUGUCAGCAAAGUUATT against MGST2, the median seed-adjusted z-score is reported as inactive: 0.387. In the case of CCUACACCAUAAAGAGUAATT against COL10A1, the median seed-adjusted z-score is reported as inactive: -0.0291.
